Measured values as given in PMC8576121.

Columns and labels:
Assay in all cases: affinity purification with mass spectrometry; N-His6 bait overproduced in H. volcanii; cytoplasmic extract on nickel chelating sepharose at room temperature in 2.1 M NaCl, 20 mM HEPES, 20 mM imidazole; four washes with 30 mM imidazole, elution with 700 mM imidazole; no RNase step, no cross-linking; co-isolated proteins identified by LC-MS/MS; three biological replicates; proteins found in the empty-vector or DHFR controls removed
[1] = biological target: T1, DNA-directed RNA polymerase subunit Rpo1N (Haloferax volcanii) (UniProt D4GZX6)
T1 sequence: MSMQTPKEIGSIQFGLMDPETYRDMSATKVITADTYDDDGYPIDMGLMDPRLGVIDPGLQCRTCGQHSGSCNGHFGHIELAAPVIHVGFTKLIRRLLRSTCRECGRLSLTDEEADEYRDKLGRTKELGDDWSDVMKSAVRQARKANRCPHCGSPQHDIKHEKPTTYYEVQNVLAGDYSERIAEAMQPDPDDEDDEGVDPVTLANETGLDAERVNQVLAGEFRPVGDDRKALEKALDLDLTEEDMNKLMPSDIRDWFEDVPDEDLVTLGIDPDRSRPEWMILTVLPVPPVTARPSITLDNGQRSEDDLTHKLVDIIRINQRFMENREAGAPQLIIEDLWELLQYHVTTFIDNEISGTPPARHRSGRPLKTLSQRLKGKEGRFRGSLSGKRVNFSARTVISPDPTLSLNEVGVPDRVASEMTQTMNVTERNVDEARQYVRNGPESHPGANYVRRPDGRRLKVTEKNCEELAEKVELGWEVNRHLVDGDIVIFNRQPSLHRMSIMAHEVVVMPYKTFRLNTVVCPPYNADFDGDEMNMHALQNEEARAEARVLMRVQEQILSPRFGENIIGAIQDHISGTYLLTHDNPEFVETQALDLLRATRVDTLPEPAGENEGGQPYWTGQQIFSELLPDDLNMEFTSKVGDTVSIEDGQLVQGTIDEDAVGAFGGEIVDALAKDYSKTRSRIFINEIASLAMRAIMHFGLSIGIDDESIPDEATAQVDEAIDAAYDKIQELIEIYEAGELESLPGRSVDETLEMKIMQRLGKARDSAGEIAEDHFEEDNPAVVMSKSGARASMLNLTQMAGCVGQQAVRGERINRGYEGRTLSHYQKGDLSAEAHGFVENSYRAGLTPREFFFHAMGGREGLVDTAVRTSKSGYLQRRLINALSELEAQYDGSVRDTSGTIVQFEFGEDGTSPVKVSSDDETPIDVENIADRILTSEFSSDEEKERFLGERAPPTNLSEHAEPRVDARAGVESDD

[2] = biological target: T2, DNA-directed RNA polymerase subunit Rpo3 (Haloferax volcanii) (UniProt D4GWY4)
T2 sequence: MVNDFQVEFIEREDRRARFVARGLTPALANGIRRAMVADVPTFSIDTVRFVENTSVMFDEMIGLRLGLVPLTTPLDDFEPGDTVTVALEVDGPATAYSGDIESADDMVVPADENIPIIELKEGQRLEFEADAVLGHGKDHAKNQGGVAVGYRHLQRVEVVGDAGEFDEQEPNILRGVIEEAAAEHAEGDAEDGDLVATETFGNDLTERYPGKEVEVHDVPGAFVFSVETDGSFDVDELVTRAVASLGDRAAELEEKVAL

[3] = biological target: T3, DNA-directed RNA polymerase subunit Rpo1C (Haloferax volcanii) (UniProt D4GZX7)
T3 sequence: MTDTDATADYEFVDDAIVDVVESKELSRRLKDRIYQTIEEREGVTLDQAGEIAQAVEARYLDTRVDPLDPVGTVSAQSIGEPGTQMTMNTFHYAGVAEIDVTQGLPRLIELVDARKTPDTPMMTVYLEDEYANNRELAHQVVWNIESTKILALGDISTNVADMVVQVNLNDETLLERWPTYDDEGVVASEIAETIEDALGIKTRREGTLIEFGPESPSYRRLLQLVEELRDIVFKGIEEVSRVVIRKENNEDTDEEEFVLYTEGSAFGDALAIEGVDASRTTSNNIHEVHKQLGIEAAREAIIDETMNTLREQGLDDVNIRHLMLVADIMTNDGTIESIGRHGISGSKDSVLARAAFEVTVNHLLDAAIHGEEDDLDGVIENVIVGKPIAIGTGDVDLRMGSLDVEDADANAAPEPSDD

[4] = biological target: T4, DNA-directed RNA polymerase subunit Rpo5 (Haloferax volcanii) (UniProt D4GZX3)
T4 sequence: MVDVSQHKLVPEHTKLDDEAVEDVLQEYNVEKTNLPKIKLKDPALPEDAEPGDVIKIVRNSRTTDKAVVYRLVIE

[5] = biological target: T5, DNA-directed RNA polymerase subunit Rpo2N (Haloferax volcanii) (UniProt D4GZX4)
T5 sequence: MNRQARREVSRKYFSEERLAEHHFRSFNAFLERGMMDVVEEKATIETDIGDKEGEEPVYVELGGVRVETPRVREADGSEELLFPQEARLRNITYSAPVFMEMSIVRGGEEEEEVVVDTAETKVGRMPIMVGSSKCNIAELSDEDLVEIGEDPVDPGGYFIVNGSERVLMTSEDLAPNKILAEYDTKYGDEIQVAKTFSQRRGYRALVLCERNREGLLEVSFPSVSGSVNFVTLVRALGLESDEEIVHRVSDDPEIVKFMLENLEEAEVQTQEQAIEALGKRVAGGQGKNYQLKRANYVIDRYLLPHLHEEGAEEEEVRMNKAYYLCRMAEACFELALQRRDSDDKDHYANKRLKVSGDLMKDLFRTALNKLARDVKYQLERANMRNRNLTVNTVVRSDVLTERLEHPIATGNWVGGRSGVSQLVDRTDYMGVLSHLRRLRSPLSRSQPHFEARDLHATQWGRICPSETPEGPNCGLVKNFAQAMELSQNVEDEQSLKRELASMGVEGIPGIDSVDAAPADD

[6] = biological target: T6, DNA-directed RNA polymerase subunit Rpo11 (Haloferax volcanii) (UniProt D4GVL8)
T6 sequence: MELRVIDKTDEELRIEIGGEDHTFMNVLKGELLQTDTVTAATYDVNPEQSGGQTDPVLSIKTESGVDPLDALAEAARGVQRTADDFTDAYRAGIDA

[7] = biological target: T7, translation initiation factor aIF2 beta subunit / probable RNA-binding protein (aIF2β-2) (Haloferax volcanii) (UniProt D4GVV8)
T7 sequence: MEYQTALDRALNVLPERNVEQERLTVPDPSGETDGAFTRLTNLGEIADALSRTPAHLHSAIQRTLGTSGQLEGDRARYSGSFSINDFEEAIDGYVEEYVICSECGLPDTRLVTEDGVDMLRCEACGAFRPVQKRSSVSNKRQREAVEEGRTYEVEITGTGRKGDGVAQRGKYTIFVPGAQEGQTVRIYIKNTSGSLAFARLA

[8] = biological target: T4, DNA-directed RNA polymerase subunit Rpo5 (Haloferax volcanii); remark: listed apart in the source
[9] = biological target: T8, translation initiation factor aIF2 gamma subunit (Haloferax volcanii) (UniProt D4GTD4)
T8 sequence: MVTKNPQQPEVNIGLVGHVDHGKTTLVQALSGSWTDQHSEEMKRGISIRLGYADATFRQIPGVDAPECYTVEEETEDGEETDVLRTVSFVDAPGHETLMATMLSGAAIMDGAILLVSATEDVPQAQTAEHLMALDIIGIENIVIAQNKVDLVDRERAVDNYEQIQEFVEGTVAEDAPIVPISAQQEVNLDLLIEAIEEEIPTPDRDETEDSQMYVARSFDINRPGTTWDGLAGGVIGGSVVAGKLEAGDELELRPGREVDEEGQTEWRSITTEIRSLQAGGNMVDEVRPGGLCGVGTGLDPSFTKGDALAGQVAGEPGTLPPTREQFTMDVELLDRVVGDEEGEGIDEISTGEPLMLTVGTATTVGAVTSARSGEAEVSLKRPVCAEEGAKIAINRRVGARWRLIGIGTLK

[10] = biological target: T9, translation initiation factor aIF2 alpha subunit (Haloferax volcanii) (UniProt D4GT46)
T9 sequence: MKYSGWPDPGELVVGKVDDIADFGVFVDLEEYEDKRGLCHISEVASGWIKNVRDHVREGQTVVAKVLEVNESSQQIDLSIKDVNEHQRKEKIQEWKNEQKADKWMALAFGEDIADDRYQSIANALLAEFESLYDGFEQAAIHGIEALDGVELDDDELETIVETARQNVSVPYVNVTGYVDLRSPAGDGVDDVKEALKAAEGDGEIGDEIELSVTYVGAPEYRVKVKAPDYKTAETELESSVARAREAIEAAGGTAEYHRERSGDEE

With NusG the binding [1] was “no binding”, the binding [2] was “no binding” and the binding [3] was “no binding”. The binding [4] was “no binding”, the binding [5] was “no binding” and the binding [6] was “no binding”.

NusA was tested, and the binding [1] was “no binding”, the binding [2] was “no binding” and the binding [3] was “no binding”. For the same molecule, the binding [4] was “no binding”, the binding [5] was “no binding” and the binding [6] was “no binding”.

In the case of RNA polymerase auxiliary subunit RpoE, the binding [1] is reported as “no binding”, the binding [2] is reported as “no binding” and the binding [3] is reported as “no binding”. The binding [4] was “no binding”, the binding [5] was “no binding” and the binding [6] was “no binding”.

B1: translation initiation factor aIF2 alpha subunit (protein, UniProt D4GT46 1-266)
chain: T9 sequence
B1 was tested, and the binding [7] was “binds”, the binding [8] was “binds” and the binding [9] was “binds”.

B2: translation initiation factor aIF2 beta subunit / probable RNA-binding protein (aIF2β-2) (protein, UniProt D4GVV8 1-202)
chain: T7 sequence
B2 was tested, and the binding [10] was “binds” and the binding [9] was “binds”.

Where two headings read alike, the source gives them in different places. Results are given in words; binding and its absence hold for the method and conditions named. Binding seen in cells or lysates may run through a third protein. These calls come from enrichment with a bait or labelling near it, and not all partners need be listed. For some assays here: A no says only that the protein was not detected with the bait.
